Data from patent publication CN105085679A.
No constants are given. Whether binding was seen depends on the method and setting. Some entries that bind do so weakly or less than the wild type.

Molecular target: T1, RANKL(全长RANKL) on transfected 293 cells (UniProt O14788)
T1 sequence (looked up): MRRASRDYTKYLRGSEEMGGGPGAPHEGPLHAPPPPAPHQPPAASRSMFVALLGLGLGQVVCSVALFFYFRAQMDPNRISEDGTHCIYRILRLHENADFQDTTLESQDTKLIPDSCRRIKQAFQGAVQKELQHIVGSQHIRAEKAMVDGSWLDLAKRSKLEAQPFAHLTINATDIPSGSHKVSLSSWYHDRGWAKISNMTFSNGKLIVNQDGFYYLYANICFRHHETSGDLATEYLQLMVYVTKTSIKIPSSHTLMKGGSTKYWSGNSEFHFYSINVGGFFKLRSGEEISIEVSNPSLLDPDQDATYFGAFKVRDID
Assay: flow cytometry on 293 cells transfected with full-length RANKL

binding: binds
B1: 全人源抗RANKL抗体 BA05-2 (antibody, human IgG4 S228P, kappa, V domains shown)
VH: QVQLVESGGGLVKPGGSLRLSCAASGFTFSSYGMSWIRQAPGKGLEWVSGITGSGSSTYYADSAKGRFTISRDNAKNSLYLQMNSLRAEDTAVYYCARDPGTTVIMSWFDPWGQGTLVTVSS
VL: EIVMTQSPATLSLSPGERATLSCRASQSLRGRYLAWYQQKPGKAPKLLIYGASTRATGIPARFSGSGSGTDFTLTISSLQPEDFAVYYCQQYASSPRTFGQGTKVEIKR
